US20240229045, “APTAMER FOR SPECIFICALLY RECOGNIZING SOLUBLE ST2 PROTEIN AND APPLICATION OF THE SAME” (BEIJING INSTITUTE OF HEART, LUNG AND BLOOD VESSEL DISEASES, published 2024)
The exact form of at least one protein or probe is not confirmed. Where a protein sequence is shown, tags need not be part of it.

How the values were obtained:
[1] = test system: T1, soluble ST2 (sST2, IL1RL1 soluble isoform) (Homo sapiens); assay: binding assay; details: fiber-optic fluorescence, sST2 immobilised; 137 mM NaCl, 2.7 mM KCl, phosphate; label: Cy5.5 (affinity assay); single-stranded DNA
T1 sequence (looked up, limits assumed): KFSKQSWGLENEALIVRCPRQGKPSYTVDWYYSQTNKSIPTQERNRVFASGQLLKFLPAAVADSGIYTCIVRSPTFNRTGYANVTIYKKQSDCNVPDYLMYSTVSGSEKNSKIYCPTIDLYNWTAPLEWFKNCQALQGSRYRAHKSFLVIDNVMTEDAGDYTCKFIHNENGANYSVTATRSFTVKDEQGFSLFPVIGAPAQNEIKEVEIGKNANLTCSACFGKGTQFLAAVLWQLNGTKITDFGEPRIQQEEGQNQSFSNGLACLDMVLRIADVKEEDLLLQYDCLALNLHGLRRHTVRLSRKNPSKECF

[2] = test system: T1, soluble ST2 (sST2, IL1RL1 soluble isoform) (Homo sapiens); assay: EMSA; details: strong binding; room temperature 30 min; single-stranded DNA

Sequence | Kd [1] [nM] | binding result [2]
CCTCCATCCACTCGGCGCAACGCCGGGGCTCGGCC [Apt5] | 188 | 
TCCATGCACTCGCCCTTGAAAGGGTTCCCTCCGTT [Apt7] |  | binds
TCCATGCACTCGCGCTACCGGCGTGCCCGTAGATC [Apt9] |  | binds
TCCATTCACTCGACCGCTGACGCGGGTGTCGTTTT [Apt6] | 173 | 
TCCATTCACTCGCAGCGGGGTCGCGTGAGGCGCAA [Apt10] |  | binds
